Laboratory results reported in the supplement of paper PMC7661543.
Differences between knockout arms are mostly noise.

Assays:
Test in all cases: relative cell number vs DMSO control (72 h) (% of DMSO); higher = less growth inhibition (more cells)
[1] = tested on: BT-20
Protocol: (§1)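 QMAP-Seq: a pool of 5 breast cancer cell lines (ZR-75-1, SKBR3, HCC-38, MDA-MB-231, BT-20), each carrying 12 doxycycline-inducible Cas9 sgRNA perturbations (11 knockouts plus non-targeting sgNT), was treated with compounds for 72 h at four 10-fold doses (10 nM-10 uM or 1 nM-1 uM range). Barcodes were amplified and sequenced, and cell number was interpolated from 293T spike-in standard curves. The result is expressed as % of the median of DMSO wells. Two biological replicates.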

[2] = tested on: SKBR3
Protocol: as §1

[3] = tested on: ZR-75-1
Protocol: as §1

Oc1cccc(-c2nc(N3CCOCC3)c3oc4ncccc4c3n2)c1 [PI103]
relative cell number
Conditions | [1] | [2] | [3]
sgRNA knockout: sgATF3, 10 nM | 123 | 134 | 155
sgRNA knockout: sgATF3, 100 nM | 119 | 121 | 106
sgRNA knockout: sgATF3, 1000 nM | 71.7 | 54.8 | 75.9
sgRNA knockout: sgATF3, 10000 nM | 47.4 | 41.8 | 20.2
sgRNA knockout: sgATF4, 10 nM | 105 | 117 | 125
sgRNA knockout: sgATF4, 100 nM | 146 | 132 | 125.2
sgRNA knockout: sgATF4, 1000 nM | 86 | 61.3 | 90.4
sgRNA knockout: sgATF4, 10000 nM | 50.4 | 39.8 | 17.5
sgRNA knockout: sgATF6, 10 nM | 101 | 106 | 150
sgRNA knockout: sgATF6, 100 nM | 106 | 111 | 115
sgRNA knockout: sgATF6, 1000 nM | 75.6 | 50.4 | 53.8
sgRNA knockout: sgATF6, 10000 nM | 49.4 | 28.8 | 23
sgRNA knockout: sgATG7, 10 nM | 107 | 107 | 103
sgRNA knockout: sgATG7, 100 nM | 115 | 160 | 111
sgRNA knockout: sgATG7, 1000 nM | 66.4 | 61.7 | 61.7
sgRNA knockout: sgATG7, 10000 nM | 45.2 | 27.4 | 28.15
sgRNA knockout: sgERN1, 10 nM | 111 | 97.3 | 129
sgRNA knockout: sgERN1, 100 nM | 127 | 123 | 120
sgRNA knockout: sgERN1, 1000 nM | 78.9 | 53.2 | 71.7
sgRNA knockout: sgERN1, 10000 nM | 52.3 | 34.3 | 26.3
sgRNA knockout: sgHSF1, 10 nM | 109 | 133 | –
sgRNA knockout: sgHSF1, 100 nM | 106 | 97.7 | –
sgRNA knockout: sgHSF1, 1000 nM | 77.5 | 45.7 | –
sgRNA knockout: sgHSF1, 10000 nM | 45.6 | 35.4 | –
sgRNA knockout: sgHSF2, 10 nM | 131 | 123 | 141
sgRNA knockout: sgHSF2, 100 nM | 111 | 125 | 92.6
sgRNA knockout: sgHSF2, 1000 nM | 79.9 | 64.6 | 65.5
sgRNA knockout: sgHSF2, 10000 nM | 51.1 | 38.1 | 25.4
sgRNA knockout: sgKEAP1, 10 nM | 113 | 104 | –
sgRNA knockout: sgKEAP1, 100 nM | 119 | 119 | –
sgRNA knockout: sgKEAP1, 1000 nM | 71.3 | 57.1 | –
sgRNA knockout: sgKEAP1, 10000 nM | 44.3 | 28.6 | –
sgRNA knockout: sgNFE2L2, 10 nM | 108 | 103 | 125
sgRNA knockout: sgNFE2L2, 100 nM | 146 | 139 | 104
sgRNA knockout: sgNFE2L2, 1000 nM | 83.2 | 64.2 | 87.6
sgRNA knockout: sgNFE2L2, 10000 nM | 52 | 34.4 | 28.3
sgRNA knockout: sgSLC35F2, 10 nM | 104 | 123 | 132
sgRNA knockout: sgSLC35F2, 100 nM | 116 | 124 | 119
sgRNA knockout: sgSLC35F2, 1000 nM | 71.5 | 49.1 | 62.2
sgRNA knockout: sgSLC35F2, 10000 nM | 43.78 | 37.1 | 25.7
sgRNA knockout: sgXBP1, 10 nM | 119 | 128 | 130
sgRNA knockout: sgXBP1, 100 nM | 111 | 147 | 94.88
sgRNA knockout: sgXBP1, 1000 nM | 81.01 | 70.7 | 63
sgRNA knockout: sgXBP1, 10000 nM | 39.5 | 28.4 | 20.4

CC(=O)c1c(C)c2cnc(Nc3ccc(N4CCNCC4)cn3)nc2n(C2CCCC2)c1=O [Palbociclib]
relative cell number
Conditions | [1] | [2] | [3]
sgRNA knockout: sgATF3, 10 nM | 77 | 102 | 89.5
sgRNA knockout: sgATF3, 100 nM | 44.3 | 61.4 | 41.6
sgRNA knockout: sgATF3, 1000 nM | 45 | 50.1 | 39.7
sgRNA knockout: sgATF3, 10000 nM | 39.9 | 31.3 | 28.7
sgRNA knockout: sgATF4, 10 nM | 78.7 | 81.5 | 79.1
sgRNA knockout: sgATF4, 100 nM | 37.9 | 56.6 | 44.7
sgRNA knockout: sgATF4, 1000 nM | 47.9 | 52.7 | 39.3
sgRNA knockout: sgATF4, 10000 nM | 46.9 | 34.6 | 33.1
sgRNA knockout: sgATF6, 10 nM | 93.3 | 95.4 | 83.4
sgRNA knockout: sgATF6, 100 nM | 36.1 | 57.3 | 62
sgRNA knockout: sgATF6, 1000 nM | 45 | 50.6 | 35.4
sgRNA knockout: sgATF6, 10000 nM | 44 | 31.1 | 38
sgRNA knockout: sgATG7, 10 nM | 82.2 | 67.8 | 118
sgRNA knockout: sgATG7, 100 nM | 41.3 | 78.8 | 33.9
sgRNA knockout: sgATG7, 1000 nM | 45.4 | 59.3 | 36
sgRNA knockout: sgATG7, 10000 nM | 40.4 | 37.2 | 30.6
sgRNA knockout: sgERN1, 10 nM | 75.6 | 90 | 71.46
sgRNA knockout: sgERN1, 100 nM | 43.1 | 65.8 | 48.1
sgRNA knockout: sgERN1, 1000 nM | 47 | 45 | 33.78
sgRNA knockout: sgERN1, 10000 nM | 55.6 | 42.9 | 27.8
sgRNA knockout: sgHSF1, 10 nM | 83.1 | 91.4 | –
sgRNA knockout: sgHSF1, 100 nM | 34.3 | 48.1 | –
sgRNA knockout: sgHSF1, 1000 nM | 50.8 | 40.8 | –
sgRNA knockout: sgHSF1, 10000 nM | 43 | 34.8 | –
sgRNA knockout: sgHSF2, 10 nM | 77.5 | 84.78 | 94.7
sgRNA knockout: sgHSF2, 100 nM | 37 | 46.5 | 43.5
sgRNA knockout: sgHSF2, 1000 nM | 45.5 | 48.7 | 40.1
sgRNA knockout: sgHSF2, 10000 nM | 37.5 | 32.5 | 36.3
sgRNA knockout: sgKEAP1, 10 nM | 85 | 71.4 | –
sgRNA knockout: sgKEAP1, 100 nM | 42.13 | 53.8 | –
sgRNA knockout: sgKEAP1, 1000 nM | 40.2 | 66 | –
sgRNA knockout: sgKEAP1, 10000 nM | 41.5 | 31.1 | –
sgRNA knockout: sgNFE2L2, 10 nM | 81.7 | 84.4 | 105
sgRNA knockout: sgNFE2L2, 100 nM | 35.4 | 46.8 | 59.1
sgRNA knockout: sgNFE2L2, 1000 nM | 57 | 47 | 33.5
sgRNA knockout: sgNFE2L2, 10000 nM | 45.5 | 35.9 | 29
sgRNA knockout: sgSLC35F2, 10 nM | 82 | 91.2 | 53.9
sgRNA knockout: sgSLC35F2, 100 nM | 37.7 | 45.1 | 51.6
sgRNA knockout: sgSLC35F2, 1000 nM | 43.7 | 47.2 | 33.5
sgRNA knockout: sgSLC35F2, 10000 nM | 52.2 | 35.8 | 23.2
sgRNA knockout: sgXBP1, 10 nM | 75.4 | 87.6 | 99.8
sgRNA knockout: sgXBP1, 100 nM | 46.5 | 51.5 | 46.5
sgRNA knockout: sgXBP1, 1000 nM | 51.9 | 47.2 | 33.2
sgRNA knockout: sgXBP1, 10000 nM | 44.8 | 34.8 | 24.5
